ChEMBL document CHEMBL4321846, “Discovery of a Potent and Selective Oral Inhibitor of ERK1/2 (AZD0364) That Is Efficacious in Both Monotherapy and Combination Therapy in Models of Nonsmall Cell Lung Cancer (NSCLC)” (J Med Chem, 2019)

Chains of the proteins cited; added tags and fusions are not shown. Lines headed by an entry give the natural chain unless they say otherwise; changes in a name come on top.
UniProt Q12809: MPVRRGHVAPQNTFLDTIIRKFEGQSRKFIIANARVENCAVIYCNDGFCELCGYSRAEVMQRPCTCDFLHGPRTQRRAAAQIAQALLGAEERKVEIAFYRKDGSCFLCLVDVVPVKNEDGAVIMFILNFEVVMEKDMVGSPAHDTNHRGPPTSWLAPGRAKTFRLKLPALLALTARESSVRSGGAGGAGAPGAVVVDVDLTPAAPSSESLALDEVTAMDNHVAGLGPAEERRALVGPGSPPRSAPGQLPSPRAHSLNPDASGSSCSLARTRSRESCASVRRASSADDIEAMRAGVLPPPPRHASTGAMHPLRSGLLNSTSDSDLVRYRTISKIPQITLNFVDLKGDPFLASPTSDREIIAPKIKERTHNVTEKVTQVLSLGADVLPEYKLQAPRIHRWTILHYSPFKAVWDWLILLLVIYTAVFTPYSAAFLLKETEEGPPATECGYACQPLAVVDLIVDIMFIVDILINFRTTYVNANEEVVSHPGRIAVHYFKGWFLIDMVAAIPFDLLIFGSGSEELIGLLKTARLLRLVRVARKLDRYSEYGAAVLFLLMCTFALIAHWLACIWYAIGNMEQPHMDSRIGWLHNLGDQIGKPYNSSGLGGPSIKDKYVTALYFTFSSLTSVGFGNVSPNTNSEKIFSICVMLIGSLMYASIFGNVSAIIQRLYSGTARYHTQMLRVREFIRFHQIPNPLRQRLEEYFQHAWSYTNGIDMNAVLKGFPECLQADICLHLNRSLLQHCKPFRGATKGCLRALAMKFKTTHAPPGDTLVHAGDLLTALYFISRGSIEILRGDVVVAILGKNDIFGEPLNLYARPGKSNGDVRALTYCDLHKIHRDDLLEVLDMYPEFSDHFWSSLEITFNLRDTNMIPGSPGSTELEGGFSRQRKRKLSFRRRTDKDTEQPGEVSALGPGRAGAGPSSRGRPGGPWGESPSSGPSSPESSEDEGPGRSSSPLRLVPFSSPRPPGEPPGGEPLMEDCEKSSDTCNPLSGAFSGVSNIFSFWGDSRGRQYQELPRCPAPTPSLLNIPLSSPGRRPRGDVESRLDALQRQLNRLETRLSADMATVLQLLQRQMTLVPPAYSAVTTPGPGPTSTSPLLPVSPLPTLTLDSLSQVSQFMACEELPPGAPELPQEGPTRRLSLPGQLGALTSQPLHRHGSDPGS

Target: Voltage-gated inwardly rectifying potassium channel KCNH2 (Homo sapiens, UniProt Q12809)

Q: How did the IC50 turn out when `COC[C@H]1Cn2cc(-c3nc(Nc4ccnn4C)ncc3C)cc2C(=O)N1Cc1cccc(C)n1` was run?
A: The IC50 was 20 µM.
